# Reference: PubChem BioAssay AID1345085 (National Center for Advancing Translational Sciences (NCATS), 2018)
# This list was built around the results that the source calls inconclusive (neither active nor inactive); the mix of calls is not that of the screen. A potency beside an inconclusive call is a rough fit, not a confirmed value. Calls of active or inactive are those of the source. Calls follow the shape of the dose curve; as a rule, active = well fitted cell-killing curve with a large enough effect; inconclusive = small, poorly fitted or top-dose-only effect, or effect the other way; inactive = no such curve, though single readings can be large or run the other way.
# System: CAOV3
# Test: Confirmatory qHTS for gynecologic anti-cancer compounds from libraries of approved drugs and bioactive compounds; also: nearly all actives have a fitted effect of over 55% in size
# Settings: gynecologic cancer cell panel viability, ATPlite luminescence, 48 h; series mostly up to 57.6 µM; activity change, negative = viability loss: at the top concentration
# In short: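 ATP-based luminescent viability (ATPlite) after 48 h drug treatment at 37 °C, 5% CO2, across 57.5 uM–0.977 nM in 1:3 steps. Cells seeded at 1,000 per well 16 h beforehand; IC50 values computed, HEK 293T as selectivity control.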
# % is scaled to controls: 0 for no effect and ±100 for the full control effect; potency is read from the fitted curve at half-maximal effect.
SMILES,Potency,"activity change, negative = viability loss"
CC(Oc1cc(-n2cnc3ccc(CN4CCN(C)CC4)cc32)sc1C(N)=O)c1ccccc1C(F)(F)F (stereo not given),active: 27.3 µM,–
O=c1c(-c2ccc(O)cc2)coc2cc(O)cc(O)c12,"inconclusive: 15.3 µM [cytotoxic, partial curve, poor fit]",–
O=C1NC(=O)C(c2cnc3ccccn23)=C1c1cn2c3c(cccc13)CN(C(=O)N1CCOCC1)CC2,–,inactive: 0.779%
NC(=O)c1ccc2nc(-c3ccc(Oc4ccc(Cl)cc4)cc3)[nH]c2c1,"inconclusive: 19.3 µM [cytotoxic, partial curve]",–
CCCCc1nc2cc(/C=C/C(=O)NO)ccc2n1CCN(CC)CC,active: 4.85 µM,–
CC1=C(/C=C/C(C)=C/C=C/C(C)=C/C(=O)Nc2ccc(O)cc2)C(C)(C)CCC1,"inconclusive: 43.2 µM [cytotoxic, single point]",–
CC(=O)Nc1cccc(-n2c(=O)n(C3CC3)c(=O)c3c(Nc4ccc(I)cc4F)n(C)c(=O)c(C)c32)c1,–,inactive: -0.209%
Cc1cc(C(C)Nc2ccccc2C(=O)O)c2nc(N3CCOCC3)cc(=O)n2c1 (stereo not given),"inconclusive: 6.11 µM [cytotoxic, partial curve]",–
Cc1nc(NC(=O)N2CCCC2C(N)=O)sc1-c1ccnc(C(C)(C)C(F)(F)F)c1 (stereo not given),"inconclusive: 17.2 µM [cytotoxic, partial curve]",–
O=C(CCCCCCNC(=O)c1cnc(N(c2ccccc2)c2ccccc2)nc1)NO,"inconclusive: 7.69 µM [cytotoxic, full curve]",–
COc1ccc(-c2cc3nccn3c(Nc3ncccc3C(N)=O)n2)cc1OC,–,inactive: -6.41%
Cc1c(C)n(Cc2ccc(-c3ccccc3C(=O)O)cc2)c2ccc(C(=O)N[C@@H](C)c3ccc([N+](=O)[O-])cc3)cc12,–,inactive: 11.8%
Nc1nc(=S)c2[nH]cnc2[nH]1,"inconclusive: 3.43 µM [cytotoxic, full curve]",–
CCc1c2c(nc3ccc(O)cc13)-c1cc3c(c(=O)n1C2)COC(=O)[C@]3(O)CC,active: 0.0385 µM,–
CC(C)n1c(/C=C/[C@@H](O)C[C@@H](O)CC(=O)O)c(-c2ccc(F)cc2)c2ccccc21,"inconclusive: 17.2 µM [cytotoxic, partial curve]",–
CN[C@@H](C)C(=O)N[C@H]1CN(C(=O)CC(C)C)CC[C@H]2CC[C@@H](C(=O)NC(c3ccccc3)c3ccccc3)N2C1=O,–,inactive: -7.72%
CN(NC(=O)CC(=O)NN(C)C(=S)c1ccccc1)C(=S)c1ccccc1,"inconclusive: 43.2 µM [cytotoxic, partial curve, poor fit]",–
CC1=C(CO)C(=O)O[C@@H]([C@@H](C)[C@H]2CC[C@H]3[C@@H]4C[C@H]5O[C@]56[C@@H](O)C=CC(=O)[C@]6(C)[C@H]4CC[C@]23C)C1,"inconclusive: 5.95 µM [cytotoxic, single point]",–
Cc1nc(N)nc(N)c1-c1ccc(Cl)c(Cl)c1,"inconclusive: 3.85 µM [cytotoxic, full curve]",–
Nc1ncn([C@@H]2O[C@H](CO)[C@@H](O)[C@H]2O)c(=O)n1,–,inactive: 1.76%
O=c1[nH]c(=O)n([C@H]2C[C@H](O)[C@@H](CO)O2)cc1F,"inconclusive: 2.73 µM [cytotoxic, full curve]",–
CC(=O)O[C@H]1C(=O)[C@@]2(C)[C@H]([C@H](OC(=O)c3ccccc3)[C@]3(O)C[C@H](OC(=O)[C@H](O)[C@@H](NC(=O)c4ccccc4)c4ccccc4)C(C)=C1C3(C)C)[C@]1(OC(C)=O)CO[C@@H]1C[C@@H]2O,"inconclusive: 0.0366 µM [cytotoxic, full curve]",–
CC(C)CC(=O)Nc1n[nH]c2c1CN(C(=O)C1CCN(C)CC1)C2(C)C,active: 1.22 µM,–
COc1ccc(-c2ccc3c(N4CCOCC4C)nc(N4CCOCC4C)nc3n2)cc1CO (stereo not given),–,inactive: -2.81%
CCN(CC)CCCC(C)Nc1ccnc2cc(Cl)ccc12 (stereo not given),"inconclusive: 1.19 µM [rising, partial curve]",–
N#CC1(c2cccc(C(=O)Nc3cc(Oc4ccc5nc(NC(=O)C6CC6)sc5n4)ccc3F)c2Cl)CC1,–,inactive: -11.2%
COc1ccc2c(c1OC)C(=O)O[C@@H]2[C@H]1c2c(cc3c(c2OC)OCO3)CCN1C,–,inactive: 12.3%
CNCc1ccc(-c2[nH]c3cc(F)cc4c3c2CCNC4=O)cc1,"inconclusive: 43.2 µM [cytotoxic, single point]",–
CC[C@H](CC#N)OC(=O)N[C@@H](C)c1cccc(NC(=O)Nc2ccc(-c3cnco3)c(OC)c2)c1,"inconclusive: 0.273 µM [rising, partial curve]",–
CN(C)C1CCN(C(=O)c2ccc(NC(=O)Nc3nc(N4CCOCC4)nc(N4CCOCC4)n3)cc2)CC1,active: 0.611 µM,–

# Filtered by structure, the compounds so far with an aryl methoxy group
SMILES,Potency,"activity change, negative = viability loss"
COc1ccc(-c2cc3nccn3c(Nc3ncccc3C(N)=O)n2)cc1OC,–,inactive: -6.41%
COc1ccc(-c2ccc3c(N4CCOCC4C)nc(N4CCOCC4C)nc3n2)cc1CO (stereo not given),–,inactive: -2.81%
COc1ccc2c(c1OC)C(=O)O[C@@H]2[C@H]1c2c(cc3c(c2OC)OCO3)CCN1C,–,inactive: 12.3%
CC[C@H](CC#N)OC(=O)N[C@@H](C)c1cccc(NC(=O)Nc2ccc(-c3cnco3)c(OC)c2)c1,"inconclusive: 0.273 µM [rising, partial curve]",–
